Among all 340,000 compounds or so, about 6,200 (1.8%) were called active. Inconclusive means that the source gave no clear call. Such entries were picked first, then a sample of the others. Calls come from the whole dose curve; as a rule, active = well fitted activation curve with a large enough effect; inconclusive = small, poorly fitted or top-dose-only effect; inactive = no such curve, though single readings can be large or run the other way. A potency beside an inconclusive call is a rough fit, not a confirmed value.
Assay: A quantitative high throughput screen for small molecules that induce DNA re-replication in SW480 colon adenocarcinoma cells. For re-replication activation: % of control where 0% means no effect. Note: nearly all actives have a fitted effect of over 55% in size.
Details: Hoechst DNA content imaging, 48 h; re-replication activation: at 46.1 µM (top of the series) unless noted
Outline: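 Per well, 250 cells were exposed to pinned compound for 48 hr. Nuclear DNA was visualised with Hoechst (40 min, 37 C) and total object intensity recorded by fluorescence scanning.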
Potency is the fitted concentration of half-maximal effect.

Row | SMILES | re-replication activation | Potency
1 | O=C(c1ccc(F)cc1)C1CCN(Cc2ccc(F)cc2)CC1 | inactive: 0.34% | –
2 | Nc1nc(N)c2[nH]cnc2n1 | – | inconclusive: 23.1 µM [activator, partial curve, poor fit]
3 | CC1(C)CC[C@]2(C(=O)n3ccnc3)CC[C@]3(C)[C@H](C(=O)C=C4[C@@]5(C)C=C(C#N)C(=O)C(C)(C)[C@@H]5CC[C@]43C)[C@@H]2C1 | – | inconclusive: 0.651 µM [activator, full curve, poor fit]
4 | NC(=S)NN=C1c2cc(Cl)ccc2-c2c1cc(Cl)cc2[N+](=O)[O-] | – | inconclusive: 18.4 µM [activator, single point]
5 | Cc1ccc(C)c(NC(=O)CCN2CCN(c3ccccc3F)CC2)c1 | – | inconclusive: 29.1 µM [activator, single point]
6 | CC(C)(C)OC(=O)N/N=C/c1cc(N=Nc2ccccc2)ccc1O | inactive: -3.54% | –
7 | O=C(CCCc1nc2ccccc2s1)N1CCN(S(=O)(=O)c2cccs2)CC1 | inactive: 7.38% | –
8 | O=C(O)CSc1ccnc2cc(Cl)ccc12 | – | inconclusive: 18.4 µM [activator, single point]
9 | COc1ccc(Br)cc1C(=O)Nc1ccc(NC(=O)c2ccco2)cc1 | inactive: -4.36% | –
10 | CC1(C)Cc2c(sc(/N=C/N3CCCCC3)c2C#N)C(C)(C)N1 | – | inconclusive: 29.1 µM [activator, single point]
11 | COC(=O)c1ccc(C(=O)NC2CC(C)(C)Cc3c2cnn3-c2ccc(F)cc2)nc1 (centres undefined) | – | inconclusive: 18.4 µM [activator, single point]
12 | Cc1ccnc(SCC(=O)NC2CC2)n1 | – | inconclusive: 29.1 µM [activator, single point]
13 | CC1CCN(C(=O)c2[nH]cnc2C(=O)N[C@@H](C)C(=O)OCc2ccccc2)CC1 | – | inconclusive: 32.6 µM [activator, partial curve, poor fit]
14 | Cc1cc(C)c(C)c(S(=O)(=O)N2CCC(C(=O)Nc3ccccc3N3CCOCC3)CC2)c1C | – | inconclusive: 4.61 µM [activator, single point]
15 | CCOC(=O)c1cnc(-n2nc(C)cc2C)nc1NNc1cc(C)nc(-c2ccccc2)n1 | – | inconclusive: 3.66 µM [activator, full curve, poor fit]
16 | CCOC(=O)c1oc2ccccc2c1NC(=O)CCl | – | inconclusive: 29.1 µM [activator, single point]
17 | CCC1(c2ccccc2)SC(=O)NC1=O (centres undefined) | inactive: -4.54% | –
18 | O=C(Nc1ccccc1)c1cccc(Cn2cc(C(F)(F)F)ccc2=O)c1 | inactive: -10.2% | –
19 | Cc1cnc(NC(=O)CCCSc2nc3ccccc3s2)s1 | – | inconclusive: 18.4 µM [activator, single point]

Complete entries from above:
O=C(Nc1ccccc1)c1cccc(Cn2cc(C(F)(F)F)ccc2=O)c1 is entered as re-replication activation: inactive: -10.2%
CC1(C)CC[C@]2(C(=O)n3ccnc3)CC[C@]3(C)[C@H](C(=O)C=C4[C@@]5(C)C=C(C#N)C(=O)C(C)(C)[C@@H]5CC[C@]43C)[C@@H]2C1 is entered as Potency: inconclusive: 0.651 µM [activator, full curve, poor fit]
